{"source": "PubChem BioAssay AID1688", "about": "(National Center for Advancing Translational Sciences (NCATS), 2009)", "note": "In all, about 220,000 compounds went through this assay and about 2,400 (1.1%) were called active. This list was built around the results that the source calls inconclusive (neither active nor inactive); the mix of calls is not that of the screen. Calls follow the shape of the dose curve; as a rule, active = well fitted inhibition curve with a large enough effect; inconclusive = small, poorly fitted or top-dose-only effect, or effect the other way; inactive = no such curve, though single readings can be large or run the other way. A potency beside an inconclusive call is a rough fit, not a confirmed value. % is scaled to controls: 0 for no effect and ±100 for the full control effect; potency is read from the fitted curve at half-maximal effect.", "data": [{"assay": "qHTS Multiplex Assay to Identify Dual Action Probes in a Cell Model of Huntington: Aggregate Formation (GFP); also: nearly all actives have a fitted effect of over 60% in size", "details": "PC12 HttQ103-GFP aggregates, Acumen cytometry, 40 h; activity change, negative = inhibition: at 46.1 µM (top of the series) unless noted", "how_it_was_run": "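Multiplexed with ATP-based cell death, this channel scores GFP aggregates in PC12 cells expressing inducible HTTex1-Q103-GFP. Induction used 100 nM tebufenozide; compounds were tested in concentration series.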", "values": [{"smiles": "O=C(CSc1nc2ccc(S(=O)(=O)N3CCOCC3)cc2[nH]1)N1CCOCC1", "activity change, negative = inhibition": "inactive: 1.6% [at 9.22 µM]"}, {"smiles": "CC1(C)CC(C(CCN(Cc2ccccc2)C(=O)c2ccco2)c2ccc(F)cc2)CCO1", "note": "(stereo not drawn)", "Potency": "inconclusive: 17.8 µM [inhibitor, single point]"}, {"smiles": "O=C(CSc1nc2ccccc2[nH]1)c1c[nH]c2ccccc12", "Potency": "inconclusive: 0.355 µM [activator, full curve, poor fit]"}, {"smiles": "Cn1c(C(=O)NCCCN2CCN(c3ccccc3F)CC2)cc2c(=O)[nH]c3ccccc3c21", "Potency": "inconclusive: 22.4 µM [activator, single point]"}, {"smiles": "Cc1ccc2[nH]c(=O)c(CN(CCO)C(=O)NCc3ccccc3)cc2c1", "Potency": "inconclusive: 1.26 µM [activator, full curve]"}, {"smiles": "CCOC(=O)c1nnn(-c2nonc2N)c1CN1CCc2ccccc2C1", "activity change, negative = inhibition": "inactive: -6.67%"}, {"smiles": "CC(C)CNC(=O)CC(=O)N/N=C/c1cccs1", "activity change, negative = inhibition": "inactive: -5.34%"}, {"smiles": "COc1cc(C(=O)Nc2cc(-c3nc4cc(C)ccc4o3)ccc2C)cc(OC)c1OC", "Potency": "inconclusive: 11.2 µM [activator, partial curve]"}, {"smiles": "CCCCC(=O)OCc1nc(N)nc(Nc2ccccc2C)n1", "activity change, negative = inhibition": "inactive: 13.6%"}, {"smiles": "O=C(CCN1C(=O)c2ccccc2C1=O)NNC(=O)c1ccc(Cl)cc1Cl", "Potency": "inconclusive: 0.631 µM [inhibitor, partial curve]"}, {"smiles": "Cc1ccc(CN2CCSc3ccc(C(=O)NCc4ccco4)cc32)cc1", "Potency": "inconclusive: 35.5 µM [inhibitor, single point]"}, {"smiles": "Cc1occc1-c1nnc(SCC(=O)c2ccccc2)n1CC1CCCO1", "note": "(stereo not drawn)", "Potency": "inconclusive: 35.5 µM [activator, partial curve]"}, {"smiles": "Cc1occc1C(=O)Nc1cccc(C(=O)NCc2ccccc2)c1", "Potency": "inconclusive: 4.47 µM [activator, partial curve, poor fit]"}, {"smiles": "Cn1c(SCC(=O)Nc2ccc3nc(SCC(=O)NC4CC4)sc3c2)nnc1-c1ccccc1", "activity change, negative = inhibition": "inactive: -0.616%"}, {"smiles": "CC1CCN(S(=O)(=O)c2cc(Cl)ccc2Br)CC1", "Potency": "inconclusive: 35.5 µM [inhibitor, single point]"}, {"smiles": "Cc1cccc(OCC(O)CN2CCN(CCN3C(=O)c4cccc5cccc(c45)C3=O)CC2)c1C", "note": "(stereo not drawn)", "Potency": "inconclusive: 25.1 µM [inhibitor, single point]"}, {"smiles": "CNC(=O)c1nnsc1S(=O)(=O)c1ccc(Cl)cc1", "Potency": "active: 3.16 µM"}, {"smiles": "O=C(CC1SC(=Nc2ccccc2)N(Cc2ccccn2)C1=O)Nc1ccc(Br)cc1", "note": "(stereo not drawn)", "activity change, negative = inhibition": "inactive: 10.4%"}, {"smiles": "COc1ccc(/C=N/NC(=O)c2ccc(NC(=O)c3cccc([N+](=O)[O-])c3)cc2)c(OC)c1", "activity change, negative = inhibition": "inactive: 6.61%"}, {"smiles": "Cc1ccc(OCC(=O)N2N=C(C(F)(F)F)CC2(O)C(C)(C)C)cc1C", "note": "(stereo not drawn)", "Potency": "inconclusive: 25.1 µM [inhibitor, single point]"}, {"smiles": "O=C1c2ccccc2C(=O)N1c1n[nH]c(CCc2ccccc2)n1", "activity change, negative = inhibition": "inactive: 24.7%"}, {"smiles": "O=C(NNc1ccc(Cl)cc1)c1sccc1Cl", "activity change, negative = inhibition": "inactive: 13.3% [at 9.22 µM]"}, {"smiles": "O=C(NCCc1ccccc1)/C(=C\\c1ccc([N+](=O)[O-])cc1)NC(=O)c1ccc(Br)cc1", "Potency": "inconclusive: 35.5 µM [activator, single point]"}, {"smiles": "CCCCOc1ccc2c(c1)C(=O)c1cc(O)ccc1-2", "activity change, negative = inhibition": "inactive: 21.3% [at 9.22 µM]"}, {"smiles": "CCOc1ccc(N2C(=O)CC(N)C2=O)cc1", "note": "(stereo not drawn)", "Potency": "inconclusive: 35.5 µM [inhibitor, single point]"}, {"smiles": "CC(C)CCn1nnnc1CN1CCN(C(c2ccccc2)c2ccccc2)CC1", "Potency": "inconclusive: 35.5 µM [inhibitor, single point]"}, {"smiles": "CCOc1ccc(N2C(=O)CC(Sc3nc(CC(C)C)ccc3C#N)C2=O)cc1", "note": "(stereo not drawn)", "activity change, negative = inhibition": "inactive: 16.9% [at 9.22 µM]"}, {"smiles": "Nc1c(C(=O)NCCc2ccccc2)nnn1Cc1ccc(Cl)cc1", "Potency": "inconclusive: 0.562 µM [activator, full curve, poor fit]"}, {"smiles": "COc1cc(SC)ccc1C(=O)NCCCOC(C)C", "activity change, negative = inhibition": "inactive: -19%"}, {"smiles": "CCN(c1ccccc1)S(=O)(=O)c1ccc(C(=O)Nc2nnc(COC)o2)cc1", "Potency": "inconclusive: 35.5 µM [inhibitor, single point]"}, {"smiles": "CCOc1ccc2nnnn2n1", "Potency": "inconclusive: 12.6 µM [activator, partial curve]"}, {"smiles": "Cc1cc(C)n(-c2ccc(N3CCOCC3)nn2)n1", "Potency": "inconclusive: 0.794 µM [inhibitor, partial curve]"}, {"smiles": "CCCCCCCn1ccc(=N)cc1", "Potency": "active: 1.12 µM"}, {"smiles": "Cc1cc(/C=C(\\C#N)C(=O)NCCc2c[nH]c3ccccc23)c(C)n1C", "Potency": "inconclusive: 35.5 µM [activator, single point]"}, {"smiles": "CC(=O)Nc1coc2ccc(Br)cc12", "Potency": "inconclusive: 35.5 µM [inhibitor, single point]"}, {"smiles": "CCOc1ccc(-c2cc(CCCC(=O)NCCCOC)no2)cc1", "activity change, negative = inhibition": "inactive: -4.77%"}, {"smiles": "COCCn1c(SCC(=O)Nc2ccccc2OC)nc2c(oc3ccccc32)c1=O", "Potency": "inconclusive: 8.91 µM [activator, partial curve]"}, {"smiles": "O=C(NCCCN1CCN(c2cccc(Cl)c2)CC1)C1(S(=O)(=O)c2ccc(Cl)cc2)CC1", "Potency": "inconclusive: 22.4 µM [inhibitor, single point]"}, {"smiles": "Cc1ccccc1C(=O)Oc1cc(N)n(S(C)(=O)=O)n1", "Potency": "inconclusive: 11.2 µM [activator, partial curve, poor fit]"}, {"smiles": "COc1ccc(OC)c(NC(=O)CSc2nnnn2-c2ccc3c(c2)OCO3)c1", "Potency": "inconclusive: 14.1 µM [activator, partial curve]"}, {"smiles": "CC/C(=C(\\c1ccccc1)c1ccc(OCCN(C)C)cc1)c1ccccc1", "Potency": "inconclusive: 35.5 µM [inhibitor, single point]"}, {"smiles": "CCN1C=C(C(=O)OC)C(c2cccc(C)c2)C(C(=O)OC)=C1", "activity change, negative = inhibition": "inactive: 2.08%"}, {"smiles": "CS(=O)(=O)N(CC(N)=O)c1ccc2c(c1)OCO2", "activity change, negative = inhibition": "inactive: -11.7%"}, {"smiles": "O=S(=O)(CC(CN1CCCCC1)N1CCCCC1)c1ccc2ccccc2c1", "note": "(stereo not drawn)", "Potency": "inconclusive: 14.1 µM [inhibitor, single point]"}, {"smiles": "Cc1cc(C(=O)CCl)c(C)n1Cc1ccco1", "Potency": "inconclusive: 35.5 µM [inhibitor, single point]"}, {"smiles": "O=C(N/N=C/c1ccc2c(c1)OCO2)c1cc(-c2ccccc2)nc2ccccc12", "Potency": "inconclusive: 2.82 µM [inhibitor, partial curve, poor fit]"}, {"smiles": "CCc1oc2ccccc2c1C(=O)c1cc(Br)c(O)c(Br)c1", "Potency": "inactive"}, {"smiles": "CN1C(=O)CC(Nc2cccc3cccc(N)c23)C1=O", "note": "(stereo not drawn)", "Potency": "inconclusive: 11.2 µM [activator, partial curve]"}, {"smiles": "Cc1nc2c(=O)n(C)c(=O)n(C)c2nc1Cl", "Potency": "active: 10 µM"}, {"smiles": "COc1ccc(OC)c(C2CC(=O)N3CN(c4cccc(Cl)c4)CSC3=C2C#N)c1", "note": "(stereo not drawn)", "activity change, negative = inhibition": "inactive: -9.74%"}, {"smiles": "COc1ccc(C(C)=O)cc1CSc1nnc(Nc2ccccc2)s1", "Potency": "inconclusive: 25.1 µM [inhibitor, single point]"}, {"smiles": "CCOc1ccc(C2c3cc(OC)c(OC)cc3CC(=O)N2c2ccc(OC)cc2)cc1", "note": "(stereo not drawn)", "Potency": "inconclusive: 31.6 µM [activator, single point]"}, {"smiles": "COCCNC(=S)N/N=C(\\C)CCc1ccc2c(c1)OCO2", "Potency": "inconclusive: 12.6 µM [inhibitor, single point]"}, {"smiles": "O=C(CN1CCCCC1)N1CCN(C(=O)CN2CCCCC2)CC1", "activity change, negative = inhibition": "inactive: -4.4% [at 9.22 µM]"}, {"smiles": "CC(=O)Nc1ccc(S(=O)(=O)N2CCN(Cc3ccncc3)CC2)cc1", "activity change, negative = inhibition": "inactive: 15.8%"}, {"smiles": "O=C1Nc2ccccc2C(=O)C1(Cl)Cc1ccccc1", "note": "(stereo not drawn)", "activity change, negative = inhibition": "inactive: -2.02%"}, {"smiles": "COCCNc1nc(C)c(C(C)=O)s1", "activity change, negative = inhibition": "inactive: 7.27%"}, {"smiles": "O=C(CCCn1c(=O)c2ccccc2n(Cc2ccccc2)c1=O)NCc1ccco1", "activity change, negative = inhibition": "inactive: 13.7% [at 9.22 µM]"}, {"smiles": "O=C(C1CC(=O)N(C2CCCC2)C1)N1CCN(c2ccccc2F)CC1", "note": "(stereo not drawn)", "activity change, negative = inhibition": "inactive: 2.25%"}, {"smiles": "Cc1ccc(C(=O)NC(O)C(Cl)Cl)cc1", "note": "(stereo not drawn)", "activity change, negative = inhibition": "inactive: 16.2%"}, {"smiles": "N#CC(C(=O)c1ccccc1)=C1SCCS1", "activity change, negative = inhibition": "inactive: 6.02% [at 9.22 µM]"}, {"smiles": "COc1ccc(C=C2c3ccccc3C(=O)c3ccccc32)c(OC)c1", "activity change, negative = inhibition": "inactive: -26.8% [at 9.22 µM]"}, {"smiles": "O=C(N/N=C/c1ccccn1)c1cc(-c2cccc3ccccc23)n[nH]1", "Potency": "inconclusive: 35.5 µM [inhibitor, partial curve]"}, {"smiles": "COc1cc(/C=N/NC(=O)Cn2ccc(C(F)(F)F)n2)cc(OC)c1OC", "Potency": "inconclusive: 0.0891 µM [activator, partial curve, poor fit]"}, {"smiles": "CC(C)(C)c1ccc(NC(=S)NCc2cccs2)cc1", "Potency": "inconclusive: 17.8 µM [inhibitor, single point]"}, {"smiles": "Oc1ccc2ccccc2c1CNc1cnc2ccccc2c1", "Potency": "inconclusive: 22.4 µM [activator, single point]"}, {"smiles": "CCOC(=O)c1c(C)[nH]c(=S)c(C#N)c1-c1ccccc1", "Potency": "inconclusive: 6.31 µM [activator, single point]"}, {"smiles": "COC(=O)c1cccc(NC(=S)NCc2ccc(F)cc2)c1", "activity change, negative = inhibition": "inactive: -6.43%"}, {"smiles": "O=C(NCC(=O)N(c1ccccc1F)C(C(=O)NCC1CCCO1)c1ccccc1)c1ccco1", "note": "(stereo not drawn)", "Potency": "inconclusive: 0.562 µM [activator, partial curve, poor fit]"}, {"smiles": "CC(C)SCC(=O)Nc1ncc2c(n1)-c1ccccc1CC2", "Potency": "inconclusive: 35.5 µM [inhibitor, partial curve, poor fit]"}, {"smiles": "Cc1ccc(S(=O)(=O)N(CC(=O)N2CCc3ccccc3C2)c2ccc(Cl)c(Cl)c2)cc1", "Potency": "inconclusive: 11.2 µM [activator, partial curve]"}, {"smiles": "Clc1ccc2[nH]c3c(N4CCC5(CC4)OCCO5)ncnc3c2c1", "Potency": "active: 8.91 µM"}, {"smiles": "COc1ccc(Cc2nc(-c3ccc(Br)cc3)no2)cc1", "Potency": "inconclusive: 25.1 µM [inhibitor, partial curve, poor fit]"}]}]}
